Source: ChEMBL document CHEMBL6078728 (Bioorg Med Chem, 2025)

Key:
physchem [1] = conditions: buffer, pH 6.8
in vitro = conditions: PAMPA, pH 6.5
physchem [2] = conditions: buffer, pH 1.2

With `Cc1c(N[C@@H]2CCCC[C@H]2O)nnc(-c2ccc(C(F)(F)F)cc2O)c1C` the solubility at 20 h (physchem [1]) was ≥ 100 µM, the Papp at 2 h (in vitro) was 14.5 ×10⁻⁶ cm/s and the solubility at 20 h (physchem [2]) was ≥ 100 µM.
